# From patent publication US20050042714A1, “Glycoconjugates of sialic acid derivates, methods for their production and use thereof” (priority 2001, published 2005)
# Some results were stated once for a whole list of compounds, not compound by compound.
# System: B-lymphotropic papovavirus (LPV) in BJA-B K20 cells
# Assay: LPV infection of analogue-treated hyposialylated cells (VP1 ELISA, T-antigen immunofluorescence)
# Assay type: cell-based, human
# Conditions: treated 3 d, 50 h post LPV inoculation; for cells infected by LPV: BJA-B K20 cells; for VP1-expression increase as compared to NeuAc: ELISA
# Description: Changes in permissivity for the sialic acid-dependent B-lymphotropic papovavirus (LPV) in hyposialylated (K20) and normally sialylated (K88) BJA-B cells after treatment with sialic acid analogues. Cells were treated with analogues or NeuAc for 3d. 50 h post LPV inoculation the LPV infection was quantified (A) by detecting the amount of LPV VP1 in cell lysates relative to the total protein content by ELISA and (B) by indirect immunofluorescence microscopy as percentage of LPV T-antigen-positive BJA-B K20 cells. A, values are given as arithmetic means±SD of three independent experiments. B, representatives of three experiments are shown. DAPI-staining (left) indicates the total amount of cells in the section, on the right LPV T-antigen positive cells are shown with the average percentage given beside.
# To study biological effects of the incorporated sialic acid analogues BJA-B cells were examined for permissivity to infection by the B-lymphotropic papovavirus (LPV), which uses a sialylated receptor. […] With 9-iodo-NeuAc and 5-fluoroac-Neu VP1-expression was increased 2-to 3-fold as compared to NeuAc and more than 50% of the K20 cells were infected. Cells proliferated more slowly during infection and cytopathic effects of virus infection, such as enlarged nuclei were observed (FIG. 4B, DAPI-staining). Apparently, the increased VP1-expression is due to both increased number of infected cells and increased VP1-expression per cell. […] However, the panel of sialic acids tested is too small to give a prediction on sialic acid residues important for LPV binding.
# BJA-B subclones were infected with the B-lymphotropic papovavirus (LPV) as described (Keppler, O. T., Herrmann, M., Oppenländer, M., Meschede, W., and Pawlita, M. (1994) J Virol 68(11), 6933-9). […] LPV infection was quantified by indirect immunofluorescence microscopy as percentage of LPV T-antigen positive cells and the amount of LPV VP1 in cell lysates was determined by ELISA relative to the total protein extracted.
SMILES,cells infected by LPV,VP1-expression increase as compared to NeuAc
"CC(=O)N[C@H]1[C@H]([C@H](O)[C@H](O)CI)OC(O)(C(=O)O)C[C@@H]1O (stereo partly shown) [analogue f, 5-N-acetyl-9-deoxy-9-iodo-neuraminic acid]",more than 50%,2-to 3 fold
"O=C(CF)N[C@H]1[C@H]([C@H](O)[C@H](O)CO)OC(O)(C(=O)O)C[C@@H]1O (stereo partly shown) [analogue j, 5-N-fluoroacetyl-neuraminic acid]",more than 50%,2-to 3 fold
